Laboratory results: PubChem BioAssay AID1224828 (NIAID, 2016)

- Aim: 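Regulators linking TLR4 signalling to p65 nuclear translocation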 (primary screen)
- Cells: mouse RAW264.7 G9 macrophage reporter cells (GFP-p65, Tnf promoter-mCherry)
- Reagent: siRNA pool against mouse genes, 100 nM
- Duration: 2 days siRNA transfection, then 40 min LPS before fixation
- Challenge: LPS (Salmonella minnesota R595) at 10 ng/ml
- Read-out: 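Microscopy ratio of nuclear to perinuclear-ring GFP-p65 signal, scaled to the plate median; gene score is the average of two replicate robust z-scores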
- Direction: p65 translocation robust z-score: higher = more nuclear NF-kappaB p65 after LPS than the plate median; nuclear/cytoplasmic p65 ratio: higher = more nuclear NF-kappaB p65
- Hit rule: 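Called active when z exceeds 3.3 or falls under -1.56 (median of Tlr4 controls), giving activity score of at least 50; no calls for control wells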
- Meaning of the calls: active = hit (p65 shift raised or lowered); inactive = no clear change
Shown is a random part of about 17,000 reagents. In the full data, 762 (4.5%) got an active call. 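Active calls include both raised and lowered p65 entry, mostly lowered; wells with fewer than 50 cells lack a z-score.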 The raw values are shown without normalisation. A number with no mark means an inactive call.

{"gene":"Med22 (mediator complex subunit 22)","nuclear/cytoplasmic p65 ratio, rep 1":1.34,"nuclear/cytoplasmic p65 ratio, rep 2":1.29,"low cell count flag":"fewer than 50 cells per well; well left out of scoring"}
{"gene":"H2-M3 (histocompatibility 2, M region locus 3)","p65 translocation robust z-score":1.18,"nuclear/cytoplasmic p65 ratio, rep 1":1.83,"nuclear/cytoplasmic p65 ratio, rep 2":1.71,"low cell count flag":"enough cells to score"}
{"gene":"Atp8a2","p65 translocation robust z-score":0.03,"nuclear/cytoplasmic p65 ratio, rep 1":1.7,"nuclear/cytoplasmic p65 ratio, rep 2":1.54,"low cell count flag":"enough cells to score"}
{"gene":"C130058G22RIK","p65 translocation robust z-score":0.53,"nuclear/cytoplasmic p65 ratio, rep 1":1.48,"nuclear/cytoplasmic p65 ratio, rep 2":1.63,"low cell count flag":"enough cells to score"}
{"gene":"Or4c105 (olfactory receptor family 4 subfamily C member 105)","p65 translocation robust z-score":-1.46,"nuclear/cytoplasmic p65 ratio, rep 1":1.52,"nuclear/cytoplasmic p65 ratio, rep 2":1.29,"low cell count flag":"enough cells to score"}
{"gene":"Or56a5 (olfactory receptor family 56 subfamily A member 5)","p65 translocation robust z-score":-0.23,"nuclear/cytoplasmic p65 ratio, rep 1":1.32,"nuclear/cytoplasmic p65 ratio, rep 2":1.24,"low cell count flag":"enough cells to score"}
{"gene":"Kera (keratocan)","p65 translocation robust z-score":0,"nuclear/cytoplasmic p65 ratio, rep 1":1.47,"nuclear/cytoplasmic p65 ratio, rep 2":1.38,"low cell count flag":"enough cells to score"}
{"gene":"Ncapd2 (non-SMC condensin I complex, subunit D2)","nuclear/cytoplasmic p65 ratio, rep 1":2,"nuclear/cytoplasmic p65 ratio, rep 2":1.74,"low cell count flag":"fewer than 50 cells per well; well left out of scoring"}
{"gene":"Cd48 (CD48 antigen)","p65 translocation robust z-score":1.43,"nuclear/cytoplasmic p65 ratio, rep 1":1.73,"nuclear/cytoplasmic p65 ratio, rep 2":1.49,"low cell count flag":"enough cells to score"}
{"gene":"Ksr1 (kinase suppressor of ras 1)","p65 translocation robust z-score":0.77,"nuclear/cytoplasmic p65 ratio, rep 1":1.6,"nuclear/cytoplasmic p65 ratio, rep 2":1.47,"low cell count flag":"enough cells to score"}
{"gene":"Rdh16 (retinol dehydrogenase 16)","p65 translocation robust z-score":0.52,"nuclear/cytoplasmic p65 ratio, rep 1":1.53,"nuclear/cytoplasmic p65 ratio, rep 2":1.24,"low cell count flag":"enough cells to score"}
{"gene":"Dusp14 (dual specificity phosphatase 14)","p65 translocation robust z-score":1.08,"nuclear/cytoplasmic p65 ratio, rep 1":1.7,"nuclear/cytoplasmic p65 ratio, rep 2":1.46,"low cell count flag":"enough cells to score"}
{"gene":"Aldoc (aldolase C, fructose-bisphosphate)","p65 translocation robust z-score":-0.42,"nuclear/cytoplasmic p65 ratio, rep 1":1.49,"nuclear/cytoplasmic p65 ratio, rep 2":1.62,"low cell count flag":"enough cells to score"}
{"gene":"Tgoln2 (trans-golgi network protein 2)","nuclear/cytoplasmic p65 ratio, rep 1":1.36,"nuclear/cytoplasmic p65 ratio, rep 2":1.28,"low cell count flag":"fewer than 50 cells per well; well left out of scoring"}
{"gene":"Ino80c (INO80 complex subunit C)","p65 translocation robust z-score":0.63,"nuclear/cytoplasmic p65 ratio, rep 1":1.6,"nuclear/cytoplasmic p65 ratio, rep 2":1.96,"low cell count flag":"enough cells to score"}
{"gene":"Nkiras1 (NFKB inhibitor interacting Ras-like protein 1)","p65 translocation robust z-score":1.28,"nuclear/cytoplasmic p65 ratio, rep 1":1.69,"nuclear/cytoplasmic p65 ratio, rep 2":1.52,"low cell count flag":"enough cells to score"}
{"gene":"Plpp1 (phospholipid phosphatase 1)","p65 translocation robust z-score":0,"nuclear/cytoplasmic p65 ratio, rep 1":1.46,"nuclear/cytoplasmic p65 ratio, rep 2":1.44,"low cell count flag":"enough cells to score"}
{"gene":"Krtap19-4 (keratin associated protein 19-4)","p65 translocation robust z-score":1.55,"nuclear/cytoplasmic p65 ratio, rep 1":1.59,"nuclear/cytoplasmic p65 ratio, rep 2":1.8,"low cell count flag":"enough cells to score"}
{"gene":"Nrtn (neurturin)","p65 translocation robust z-score":-0.82,"nuclear/cytoplasmic p65 ratio, rep 1":1.34,"nuclear/cytoplasmic p65 ratio, rep 2":1.31,"low cell count flag":"enough cells to score"}
{"gene":"Dnmt1 (DNA methyltransferase 1)","p65 translocation robust z-score":1,"nuclear/cytoplasmic p65 ratio, rep 1":1.59,"nuclear/cytoplasmic p65 ratio, rep 2":1.52,"low cell count flag":"enough cells to score"}
{"gene":"Msln (mesothelin)","p65 translocation robust z-score":0.32,"nuclear/cytoplasmic p65 ratio, rep 1":1.54,"nuclear/cytoplasmic p65 ratio, rep 2":1.34,"low cell count flag":"enough cells to score"}

Targets above whose target name begins with C or c:
{"gene":"C130058G22RIK","p65 translocation robust z-score":0.53,"nuclear/cytoplasmic p65 ratio, rep 1":1.48,"nuclear/cytoplasmic p65 ratio, rep 2":1.63,"low cell count flag":"enough cells to score"}
{"gene":"Cd48 (CD48 antigen)","p65 translocation robust z-score":1.43,"nuclear/cytoplasmic p65 ratio, rep 1":1.73,"nuclear/cytoplasmic p65 ratio, rep 2":1.49,"low cell count flag":"enough cells to score"}
